Laboratory results reported in PubChem BioAssay AID504834 (National Center for Advancing Translational Sciences (NCATS), 2011).
In all, about 320,000 compounds went through this assay and about 22,000 (6.9%) were called active. This list was built around the results that the source calls inconclusive (neither active nor inactive); the mix of calls is not that of the screen. Calls come from the whole dose curve; as a rule, active = well fitted inhibition curve with a large enough effect; inconclusive = small, poorly fitted or top-dose-only effect, or another doubt; inactive = no such curve, though single readings can be large or run the other way. Potencies beside an inconclusive call are fits to weak or partial responses and may not hold up.

assay: Primary qHTS for delayed death inhibitors of the malarial parasite plastid, 96 hour incubation; conditions: P. falciparum luciferase reporter growth; series mostly up to 28.7 µM; activity change, negative = inhibition: at the top concentration
Procedure, shortened: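 Parasite growth measured via integrated firefly luciferase reporter in P. falciparum. Infected erythrocytes at 2% hematocrit, 0.05% parasitemia final were treated 96 hours at 37 C under 5% CO2, and luminescence was read.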
% is set by controls: 0 for no effect and ±100 for the full control effect; potency is the fitted concentration of half-maximal effect.

SMILES	activity change, negative = inhibition	Potency
CCOC(=O)c1c(C)c[nH]c1C	inactive: 1.57%	–
Cc1nc(C(C)NC(=O)c2cc(COc3ccc(F)c(F)c3)on2)cs1 (centres undefined)	inactive: -26.7%	–
O=C(O)CSc1cccc[n+]1[O-]	inactive: 21.8%	–
O=C(CCSc1ccccc1)N1CCN(c2ccccc2)CC1	–	inconclusive: 10.4 µM [inhibitor, single point]
CSc1nc2ccc(NC(=O)c3ccco3)cc2s1	–	inconclusive: 9.28 µM [inhibitor, partial curve, poor fit]
COc1ccc(S(=O)(=O)N(C)C)cc1NC(=O)CSC(C)C(=O)Nc1cc(C)on1 (centres undefined)	–	inconclusive: 4.15 µM [inhibitor, single point]
Cc1ccnc(SCC(=O)c2cccc([N+](=O)[O-])c2)n1	–	inconclusive: 10.4 µM [inhibitor, single point]
Cc1nc([N+](=O)[O-])c(Br)n1CC(=O)c1ccc2ccccc2c1	–	inconclusive: 16.5 µM [inhibitor, single point]
COC(=O)CN(c1cccc(OC)c1)S(C)(=O)=O	–	active: 5.86 µM
N#Cc1cc(-c2ccccc2)cnc1Sc1ccc(Cl)cc1	–	inconclusive: 14.7 µM [inhibitor, partial curve, poor fit]
COc1ccc(NC(=O)CN(C)C(=O)CNC(=O)c2ccc(C)s2)cc1	inactive: 0.688%	–
Cc1ccc2nc(NC(=O)c3ccc(Br)o3)sc2c1	–	inconclusive: 10.4 µM [inhibitor, partial curve, poor fit]
C[C@@]12C(=O)OC(=O)[C@]1(C)C1CCC2O1	–	active: 1.85 µM
Cc1ccc2c(c1)CCCN2C(=O)CCc1nc2ccccc2c(=O)[nH]1	–	inconclusive: 8.28 µM [inhibitor, partial curve, poor fit]
O=C(NCc1ccccc1)c1onc(CSc2ccc(Cl)cc2)c1C(=O)NCc1ccccc1	–	inconclusive: 18.5 µM [inhibitor, single point]
O=C(N/N=C/c1ccccc1[N+](=O)[O-])c1cccs1	inactive: 87.9%	–
c1ccc(CCNc2nc(-c3cccnc3)cs2)cc1	–	inconclusive: 18.5 µM [inhibitor, single point]
C/C=C/c1ccc(OCC(=O)N(CCOC)c2c(N)n(CCCC)c(=O)[nH]c2=O)c(OC)c1	–	inconclusive: 18.5 µM [inhibitor, single point]
Cc1ccc2nc3c(cc(C(=O)NCCc4ccccc4)c(=N)n3CCCN3CCOCC3)c(=O)n2c1	–	inconclusive: 1.04 µM [inhibitor, full curve]
Cc1ccc(C2(C)NC(=O)N(CC(=O)NCCC3=CCCCC3)C2=O)cc1 (centres undefined)	–	inconclusive: 8.28 µM [inhibitor, partial curve, poor fit]
COc1cccc(NC(=O)N2CCCC2C(=O)NCc2ccc(Cl)cc2)c1 (centres undefined)	–	inconclusive: 11.7 µM [inhibitor, single point]
CCc1cc2c(COC(=O)c3cccc(NS(C)(=O)=O)c3)cc(=O)oc2cc1O	–	active: 5.22 µM
CCOC(=O)C1CCCN(C(=O)c2cccc(S(=O)(=O)N3CC(C)OC(C)C3)c2)C1 (centres undefined)	–	inconclusive: 0.104 µM [inhibitor, full curve, poor fit]

Part of the list above, set out differently.
SMILES | activity change, negative = inhibition | Potency
Cc1ccc2c(c1)CCCN2C(=O)CCc1nc2ccccc2c(=O)[nH]1 | – | inconclusive: 8.28 µM [inhibitor, partial curve, poor fit]
O=C(NCc1ccccc1)c1onc(CSc2ccc(Cl)cc2)c1C(=O)NCc1ccccc1 | – | inconclusive: 18.5 µM [inhibitor, single point]

Later entries

SMILES	activity change, negative = inhibition	Potency
CCN(CC(=O)Nc1c(F)cccc1F)C(=O)c1ccc(C(=O)c2ccccc2)cc1	–	inconclusive: 11.7 µM [inhibitor, partial curve, poor fit]
Cn1c(=O)c(C(=O)CSc2ccccc2)c(N)n(Cc2ccccc2)c1=O	inactive: 17.9%	–
O=C(NNC(=S)Nc1ccc(Br)cc1)c1ccccc1Br	–	active: 9.28 µM
COc1ccc(-c2nc3c(c4nnc(SC(C)C(=O)Nc5ccccc5)n24)COC(C)(C)C3)cc1 (centres undefined)	–	inconclusive: 1.31 µM [inhibitor, full curve, poor fit]
CCC(=O)NN1CCc2cc3ccc(C)cc3nc21	inactive: 24.2%	–
O=C(NCCc1c[nH]c2ccccc12)c1cncc(Br)c1	–	inconclusive: 18.5 µM [inhibitor, single point]
COc1ccc(C(=O)O)cc1S(=O)(=O)Nc1ccccc1-c1ccccc1	inactive: 17.9%	–
COc1ccc(CN(C)C(=O)COC(=O)c2c(C)nn(-c3ccc(F)cc3)c2Cl)cc1	–	inconclusive: 18.5 µM [inhibitor, single point]
O=C1C=C(Nc2ccccc2O)c2ccccc2C1=O	–	active: 9.28 µM
COc1cccc(CN2CCC(C(=O)Nc3ccc(Oc4cccnc4)cc3)CC2)c1	inactive: 56.4%	–
CN(C)C(=O)c1ccc(-n2nc(C(F)(F)F)c3c2CCCC3)cc1	–	inconclusive: 13.1 µM [inhibitor, partial curve]
Cc1ccc(NC(=O)CSc2nnnn2-c2ccc3c(c2)OCO3)cc1C	inactive: 2.3%	–
COc1ccc(N(C)S(=O)(=O)c2cccc(C(=O)Nc3nc(C)c(C(C)=O)s3)c2)cc1	–	inconclusive: 18.5 µM [inhibitor, single point]
CCOC(=O)C1=NN(c2ccccc2C)C2=NC(C)=C(C(=O)OC)C(c3cccc(OC)c3)N12 (centres undefined)	–	inconclusive: 10.4 µM [inhibitor, single point]
COc1ccc(CN(C)CC(=O)Nc2c(C)cccc2C)c(OC)c1	inactive: 2.45%	–
C[C@@H]1C(=O)OC[C@H]1NC(=O)OCc1ccccc1	inactive: 69.2%	–
O=C(Nc1ccccc1)O/N=C/c1ccncc1	–	inconclusive: 1.17 µM [inhibitor, full curve, poor fit]
CC(c1ccccc1)n1c(-c2ccncc2)n[nH]c1=S (centres undefined)	–	inconclusive: 0.0037 µM [inhibitor, full curve, poor fit]
CCN1C(=O)CSC1=Nc1ccc(C(=O)O)cc1	–	inconclusive: 16.5 µM [inhibitor, partial curve, poor fit]
CC(=O)N1CCN(Cc2nc3cc(NC(=O)c4ccc(F)cc4)ccc3n2C)CC1	inactive: -5.33%	–
COc1cc(-c2[nH]ncc2CN(C)Cc2cc(C)[nH]n2)cc(OC)c1OC	–	inconclusive: 13.1 µM [inhibitor, single point]
COCCNC(=O)c1cn(CCOC)c(=O)c2c1c1ccccc1n2C	–	inconclusive: 8.28 µM [inhibitor, single point]
CC(=O)N1c2ccc(S(=O)(=O)N3CCC(C(=O)Nc4ncccc4C)CC3)cc2CC1C (centres undefined)	–	inconclusive: 11.7 µM [inhibitor, single point]

SMILES	activity change, negative = inhibition	Potency
CCC(=O)NNc1nc2c(C)cccc2s1	inactive: -0.915%	–
COc1cc(NS(=O)(=O)c2ccc(NC(=S)NC(=O)/C=C/c3ccco3)cc2)ncn1	–	inconclusive: 18.5 µM [inhibitor, single point]
Cc1nc2cc(-c3ccc(Cl)cc3)nn2c(C)c1CCC(=O)NC(C)c1ccc2c(c1)OCCO2 (centres undefined)	–	inconclusive: 18.5 µM [inhibitor, partial curve, poor fit]
COc1ccc(CN(C(=O)c2snc(C(N)=O)c2N)C(C(=O)NC2CCCC2)c2cc(OC)ccc2OC)cc1 (centres undefined)	–	active: 2.08 µM
Cc1ccc(C)c(OCC(=O)Nc2cccc(S(=O)(=O)NC3=NCCCCC3)c2)c1	–	inconclusive: 5.22 µM [inhibitor, partial curve]
Nc1nonc1-c1noc(-c2ccccc2Br)n1	–	inconclusive: 0.0657 µM [inhibitor, full curve, poor fit]
Cc1ccc(CNC(=O)CCC2CCCN(Cc3cc4ccccc4o3)C2)o1 (centres undefined)	inactive: -11%	–
COc1ccc(-c2cc(CCCC(=O)NCc3ccccn3)no2)cc1	–	inconclusive: 13.1 µM [inhibitor, partial curve, poor fit]
COc1ccccc1Oc1c(C)oc2c(CN(C)C)c(O)ccc2c1=O	–	inconclusive: 18.5 µM [inhibitor, single point]
COCCCNC(=O)CNC(=O)c1nn(-c2ccc(OC)cc2OC)c(=O)c2ccccc12	–	inconclusive: 7.38 µM [inhibitor, partial curve]
CN1CCCC(OC(=O)c2ccc(C#N)cc2)C1 (centres undefined)	inactive: 27.3%	–
O=C(Nc1ccc(-c2noc(COc3ccccc3Cl)n2)cc1)c1ccco1	inactive: 223%	–
COc1ccc(-n2cnnc2SCc2ncc(-c3ccccc3)o2)cc1	–	inconclusive: 18.5 µM [inhibitor, single point]
COc1cc(C(=O)NCC(=O)NCCN2C(=O)S/C(=C\c3ccc4c(c3)OCO4)C2=O)cc(OC)c1OC	–	inconclusive: 10.4 µM [inhibitor, single point]
COc1ccc(NC(=O)c2cccc(NC(=O)c3ccco3)c2)c(OC)c1	–	inconclusive: 5.86 µM [inhibitor, partial curve, poor fit]
O=C(NNC(=O)C12CC3CC(CC(Cl)(C3)C1)C2)c1ccncc1	inactive: 53.2%	–
Nc1ccccc1SSc1ccccc1N	–	inconclusive: 14.7 µM [inhibitor, single point]
CCc1nnc(NC(=O)c2nc(S(=O)(=O)Cc3ccc(C)cc3)ncc2Cl)s1	–	inconclusive: 18.5 µM [inhibitor, single point]
COc1cc(C2C(C#N)=C(N)N(Nc3ccccc3)C3=C2C(=O)CC(C)(C)C3)ccc1OCc1ccccc1 (centres undefined)	–	active: 2.94 µM
COc1ccc(Br)cc1C(=O)Nc1ccccc1-c1ccccc1	–	inconclusive: 0.0026 µM [inhibitor, full curve, poor fit]
O=C(C1CCN(S(=O)(=O)c2cccc3cccnc23)CC1)N1CCN(c2ccccc2)CC1	–	inconclusive: 2.62 µM [inhibitor, partial curve, poor fit]
Cc1ccccc1CC(=O)NCC1CCCCC1	–	active: 11.7 µM
CCOc1ccccc1N1CCN(c2ncnc3scc(-c4ccc(OC)cc4)c23)CC1	–	inconclusive: 1.85 µM [inhibitor, full curve, poor fit]

Part of the list above, in markdown:

| SMILES | activity change, negative = inhibition | Potency |
| --- | --- | --- |
| Cc1nc2cc(-c3ccc(Cl)cc3)nn2c(C)c1CCC(=O)NC(C)c1ccc2c(c1)OCCO2 (centres undefined) | – | inconclusive: 18.5 µM [inhibitor, partial curve, poor fit] |
| COc1ccc(CN(C(=O)c2snc(C(N)=O)c2N)C(C(=O)NC2CCCC2)c2cc(OC)ccc2OC)cc1 (centres undefined) | – | active: 2.08 µM |
| Cc1ccc(C)c(OCC(=O)Nc2cccc(S(=O)(=O)NC3=NCCCCC3)c2)c1 | – | inconclusive: 5.22 µM [inhibitor, partial curve] |
